# The list shows a part of the results. For some assays here: The source does not settle which construct or isoform was used.
# How the values were obtained:
# Experiment in all cases: protein microarray (ProtoArray v5.0), streptavidin-Alexa Fluor 647
# Conditions in all cases: 3'-biotin; 20 mM Tris (pH 7.5), 5 mM MgCl2, 100 mM KCl, 0.1% Tween-20, A/T-rich and random oligonucleotide blockers; temperature not stated; high values mean tight binding
# ZNF655 (human) = tested on: ZNF655 (human)
# ZNF695 (human) = tested on: ZNF695 (human)
# ZNF718 (human) = tested on: ZNF718 (human)
# ZNF765 (human) = tested on: ZNF765 (human)
# ZRANB1 (human) = tested on: ZRANB1 (human)
# ZRF1 = biological target: T1, ZRF1 (UniProt Q99543)
# T1 sequence: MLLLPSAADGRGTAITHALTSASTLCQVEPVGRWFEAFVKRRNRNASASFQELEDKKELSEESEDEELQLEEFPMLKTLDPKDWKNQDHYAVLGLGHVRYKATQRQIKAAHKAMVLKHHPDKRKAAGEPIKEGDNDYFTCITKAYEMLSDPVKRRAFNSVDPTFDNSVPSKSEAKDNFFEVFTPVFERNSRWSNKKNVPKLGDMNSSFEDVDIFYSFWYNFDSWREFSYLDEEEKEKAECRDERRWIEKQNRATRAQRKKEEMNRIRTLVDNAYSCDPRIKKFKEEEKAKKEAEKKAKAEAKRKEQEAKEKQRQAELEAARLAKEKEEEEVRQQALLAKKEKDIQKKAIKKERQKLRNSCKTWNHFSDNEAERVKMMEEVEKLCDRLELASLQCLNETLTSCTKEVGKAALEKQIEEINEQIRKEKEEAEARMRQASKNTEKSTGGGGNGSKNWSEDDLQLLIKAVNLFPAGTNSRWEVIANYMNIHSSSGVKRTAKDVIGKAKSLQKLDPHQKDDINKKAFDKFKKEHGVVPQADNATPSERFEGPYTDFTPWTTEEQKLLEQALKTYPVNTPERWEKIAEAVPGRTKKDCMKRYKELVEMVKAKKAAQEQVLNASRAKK
# ZSCAN18 (human) = tested on: ZSCAN18 (human)
# ZW10 = biological target: T2, ZW10 (UniProt O43264)
# T2 sequence: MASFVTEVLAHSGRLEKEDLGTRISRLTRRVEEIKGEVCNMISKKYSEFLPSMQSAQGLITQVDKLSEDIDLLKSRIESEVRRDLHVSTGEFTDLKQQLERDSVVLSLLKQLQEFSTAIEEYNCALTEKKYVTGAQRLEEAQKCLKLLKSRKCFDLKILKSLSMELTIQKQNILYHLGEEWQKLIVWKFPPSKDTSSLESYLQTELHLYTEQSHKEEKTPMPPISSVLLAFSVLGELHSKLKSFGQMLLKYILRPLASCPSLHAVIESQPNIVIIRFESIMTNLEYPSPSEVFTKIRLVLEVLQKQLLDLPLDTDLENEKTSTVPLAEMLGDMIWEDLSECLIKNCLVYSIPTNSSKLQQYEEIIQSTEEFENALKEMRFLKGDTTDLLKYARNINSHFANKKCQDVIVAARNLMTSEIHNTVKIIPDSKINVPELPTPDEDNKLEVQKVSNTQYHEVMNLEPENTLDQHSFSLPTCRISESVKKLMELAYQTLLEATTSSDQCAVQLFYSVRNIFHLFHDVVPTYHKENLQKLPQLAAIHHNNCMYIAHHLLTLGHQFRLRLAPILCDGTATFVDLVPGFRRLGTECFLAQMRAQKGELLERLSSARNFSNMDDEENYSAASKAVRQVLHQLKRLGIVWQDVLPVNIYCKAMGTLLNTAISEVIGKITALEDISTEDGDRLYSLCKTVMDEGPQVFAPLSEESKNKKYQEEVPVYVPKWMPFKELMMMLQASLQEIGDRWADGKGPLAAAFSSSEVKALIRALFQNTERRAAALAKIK
# ZWINT = biological target: T3, ZWINT (UniProt O95229)
# T3 sequence: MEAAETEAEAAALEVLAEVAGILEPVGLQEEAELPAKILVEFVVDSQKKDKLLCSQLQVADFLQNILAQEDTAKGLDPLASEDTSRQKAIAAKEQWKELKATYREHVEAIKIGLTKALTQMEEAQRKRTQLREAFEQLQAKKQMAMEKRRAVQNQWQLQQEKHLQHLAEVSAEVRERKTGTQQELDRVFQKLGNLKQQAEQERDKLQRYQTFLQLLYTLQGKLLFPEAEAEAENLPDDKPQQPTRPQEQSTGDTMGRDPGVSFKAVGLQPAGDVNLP
# [1] = tested on: Zinc finger BED domain-containing protein 1 (human)
# [2] = tested on: Zinc finger CCCH domain-containing protein 7A (human)
# [3] = tested on: Zinc finger FYVE domain-containing protein 27 (human)
# [4] = tested on: Zinc finger and SCAN domain-containing protein 2 (human)
# [5] = tested on: Zinc finger protein 654 (human)
# [6] = tested on: Zinc finger protein 655 (human)
# [7] = tested on: Zinc finger protein ZXDC (human)
# [8] = tested on: Zinc finger protein castor homolog 1 (human)
# [9] = tested on: Zinc transporter 7 (human)
# [10] = tested on: Zinc transporter ZIP1 (human)
# [11] = tested on: Zinc transporter ZIP11 (human)
sequence,measurement,setting,value
GGGAGGCTGAGGCAGG [G4-1 biotinylated (PQS2)],binding signal,ZNF655 (human),-0.316 z-score
same,binding signal,ZNF695 (human),-0.319 z-score
same,binding signal,ZNF718 (human),-0.337 z-score
same,binding signal,ZNF765 (human),-0.336 z-score
same,binding signal,ZRANB1 (human),-0.321 z-score
same,binding signal,ZRF1,-0.342 z-score
same,binding signal,ZSCAN18 (human),-0.358 z-score
same,binding signal,ZW10,-0.329 z-score
same,binding signal,ZWINT,-0.35 z-score
same,binding signal,[1],-0.354 z-score
same,binding signal,[2],-0.323 z-score
same,binding signal,[3],-0.248 z-score
same,binding signal,[4],-0.348 z-score
same,binding signal,[5],-0.28 z-score
same,binding signal,[6],-0.362 z-score
same,binding signal,[7],-0.321 z-score
same,binding signal,[8],-0.354 z-score
same,binding signal,[9],-0.34 z-score
same,binding signal,[10],-0.325 z-score
same,binding signal,[11],-0.328 z-score

# Part of the list above, tab-delimited:
sequence	measurement	setting	value
GGGAGGCTGAGGCAGG [G4-1 biotinylated (PQS2)]	binding signal	ZNF655 (human)	-0.316 z-score
same	binding signal	[9]	-0.34 z-score
